Results deposited as PubChem BioAssay AID1259424 (University of Nebraska Medical Center, 2018).
The whole screen tested about 14,000 reagents; shown is an unselected part. 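Higher correlation or smaller distance means closer resemblance to KSR1 loss; control wells, including KSR1 knockdowns, recur on many plates.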 Reagent sequences are not shown. Not given: the time to read-out.

- Assay: 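Seek colon cancer survival genes behaving like KSR1, using a six-gene signature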 (primary screen)
- System: human HCT116 colon cancer cells
- Reagents: siRNA pool against human genes, 50 nM
- Measured: 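Log2 levels of six mRNAs (branched-DNA multiplex), adjusted by two reference genes and the non-targeting median, then scored against the average KSR1 knockdown pattern as Pearson r and euclidean distance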
- Scale: mean correlation with KSR1 profile and KSR1 correlation: higher = expression change more like KSR1 knockdown; mean distance from KSR1 profile: higher = expression change less like KSR1 knockdown

| Gene | mean correlation with KSR1 profile | mean distance from KSR1 profile | KSR1 correlation, replicate 1 | KSR1 correlation, replicate 2 | KSR1 correlation, replicate 3 |
| --- | --- | --- | --- | --- | --- |
| FER | 0.876 | 3.8 | 0.762 | 0.822 | 0.942 |
| TRIO | 0.64 | 1.77 | 0.732 | 0.576 | 0.316 |
| ZNF217 | -0.29 | 3.61 | -0.186 | -0.197 | -0.516 |
| MSX1 | -0.506 | 2.1 | -0.16 | 0.23 | -0.559 |
| FOXJ1 | -0.148 | 4.07 | -0.167 | -0.246 | 0.038 |
| MAP3K12 | 0.102 | 1.54 | 0.353 | 0.182 | -0.0861 |
| FMNL1 | -0.467 | 3.75 | -0.526 | -0.582 | -0.461 |
| GFAP | -0.27 | 4.4 | -0.0554 | -0.341 | -0.295 |
| CNMD | 0.0244 | 1.36 | -0.0293 | -0.0505 | 0.163 |
| PLAC1 | -0.361 | 1.77 | -0.246 | -0.481 | -0.0825 |
| TIMP3 | -0.625 | 2.3 | -0.586 | -0.654 | -0.597 |
| ZNF430 | -0.174 | 2.08 | -0.542 | -0.0623 | -0.334 |
| DEFA3 | 0.0674 | 1.27 | 0.29 | -0.054 | -0.0682 |
| DPYS | 0.523 | 3.51 | 0.194 | 0.767 | 0.649 |
| FAM86C1P | 0.434 | 2.15 | 0.261 | 0.331 | 0.436 |
| TAS2R3 | 0.585 | 1.89 | 0.566 | 0.882 | 0.525 |
| USP2 | -0.443 | 1.89 | -0.397 | -0.484 | -0.415 |
| LINC01587 | -0.19 | 1.3 | -0.249 | -0.363 | -0.0202 |
| SERPINB3 | -0.367 | 2.68 | -0.618 | -0.226 | -0.215 |
| KAZN | -0.677 | 1.86 | -0.873 | -0.662 | -0.406 |
| ABCB5 | 0.166 | 1.28 | 0.391 | 0.308 | 0.149 |
| STK32C | 0.547 | 2.74 | 0.607 | 0.559 | 0.658 |
| IGF2BP3 | 0.251 | 2.21 | 0.0232 | 0.358 | 0.228 |
| SLC6A20 | -0.0765 | 1.68 | 0.112 | 0.0227 | -0.171 |
| MTA1 | -0.335 | 2.59 | -0.427 | -0.433 | -0.12 |
| RIPOR1 | -0.00931 | 3.17 | 0.0835 | -0.121 | 0.087 |
| RAB35 | -0.384 | 3.22 | -0.348 | -0.369 | -0.478 |
| AP5M1 | -0.493 | 1.63 | -0.709 | -0.527 | -0.0939 |
| TOR1AIP2 | 0.0552 | 2.27 | -0.0829 | -0.475 | 0.154 |
| PPP3R2 | -0.274 | 2.46 | -0.313 | -0.237 | -0.286 |
| FAHD2B | -0.267 | 2.67 | -0.228 | -0.377 | -0.228 |
| PAK1IP1 | -0.125 | 2.3 | -0.196 | -0.0858 | 0.0363 |
| NTPCR | 0.38 | 2.13 | 0.236 | 0.215 | 0.558 |
| TAMALIN | 0.0143 | 2.2 | 0.0164 | -0.148 | 0.311 |

4 entries from above, set out differently:
Gene | mean correlation with KSR1 profile | mean distance from KSR1 profile | KSR1 correlation, replicate 1 | KSR1 correlation, replicate 2 | KSR1 correlation, replicate 3
FER | 0.876 | 3.8 | 0.762 | 0.822 | 0.942
TRIO | 0.64 | 1.77 | 0.732 | 0.576 | 0.316
ZNF217 | -0.29 | 3.61 | -0.186 | -0.197 | -0.516
MSX1 | -0.506 | 2.1 | -0.16 | 0.23 | -0.559
